From paper doi:10.1101/783266
These are yes or no findings as the source states them, for the method shown. In cells and extracts the contact can be indirect. A result given as binding can be weak or reduced; the word gives no strength. Where a sequence is shown, tags or fusion partners need not be part of it.

Biological target: LRX4^ΔNTΔE-HA (Arabidopsis thaliana)
Experiment: co-IP

B1: extracellular domain (ECD) of FER fused to citrine (FER^ECD-citrine) or FLAG (FER^ECD-FLAG) (domain or fragment, UniProt Q9SCZ4 28-447)
chain: ADYSPTEKILLNCGGGASNLTDTDNRIWISDVKSKFLSSSSEDSKTSPALTQDPSVPEVPYMTARVFRSPFTYTFPVASGRKFVRLYFYPNSYDGLNATNSLFSVSFGPYTLLKNFSASQTAEALTYAFIIKEFVVNVEGGTLNMTFTPESAPSNAYAFVNGIEVTSMPDMYSSTDGTLTMVGSSGSVTIDNSTALENVYRLNVGGNDISPSADTGLYRSWYDDQPYIFGAGLGIPETADPNMTIKYPTGTPTYVAPVDVYSTARSMGPTAQINLNYNLTWIFSIDSGFTYLVRLHFCEVSSNITKINQRVFTIYLNNQTAEPEADVIAWTSSNGVPFHKDYVVNPPEGNGQQDLWLALHPNPVNKPEYYDSLLNGVEIFKMNTSDGNLAGTNPIPGPQVTADPSKVLRPTTRKSKSNTA
- binding: binds
